PubChem BioAssay AID743454 | Peter MacCallum Cancer Centre, 2014

Assay: 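Knock-downs lowering viability or raising caspase 3/7 activity in vorinostat-treated resistant cells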 (primary screen)
Cells: human HCT116-VR colon cancer cells, selected for vorinostat resistance
Reagents: siRNA pool against human genes, 40 nM siRNA pool
Time to read-out: vorinostat for 24 h, read-out about 72 h after transfection
Treatment: vorinostat at 2.5 µM final
Detection: 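Two measures, CellTiter-Fluor viability and luminescent caspase 3/7 activity, each as fold change against same-plate mock wells, mean of duplicates, then screen-wide robust z-score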
Direction: viability robust z-score: higher = more viable cells than screen typical; caspase robust z-score: higher = more caspase 3/7 activity than screen typical
Call rule: 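Hits are knock-downs in viability class RV1/RV2 or caspase class CA1/CA2, excluding ones that killed cells in the no-drug cell-count arm; hits then retested with single siRNAs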
The whole screen tested about 18,000 reagents; this is a random part of them. 450 of all reagents (2.5%) count as active. 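Single biological run; no consistent viability z cut-off exists, so the class columns, not z-scores, define the calls.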 Reagent sequences are not shown.

FCRLB scored viability hit class no change; caspase hit class no change; viability robust z-score 0.43; caspase robust z-score -0.2; inactive.
Depletion of FRRS1L resulted in: viability hit class no change; caspase hit class no change; viability robust z-score -0.36; caspase robust z-score 1.23; inactive.
OR8U8 gave viability hit class no change; caspase hit class no change; viability robust z-score -0.36; caspase robust z-score -0.18; inactive.
GABRD showed viability hit class no change; caspase hit class no change; viability robust z-score 1.06; caspase robust z-score -0.14; inactive.
With knock-down of ATXN2L the results were viability hit class no change; caspase hit class no change; viability robust z-score 0.68; caspase robust z-score -0.64; inactive.
Silencing of B9D2 resulted in: viability hit class no change; caspase hit class no change; viability robust z-score 1.38; caspase robust z-score 0.36; inactive.

As entered above:
Result of FCRLB under “caspase hit class”: no change
Under “caspase hit class”, GABRD reads no change

Further reagents:
LSM12 gave viability hit class no change; caspase hit class no change; viability robust z-score 0.53; caspase robust z-score -0.47; inactive.
SPATA8 gave viability hit class no change; caspase hit class no change; viability robust z-score -0.46; caspase robust z-score -0.92; inactive.
Knock-down of CATSPERT gave: viability hit class RV2 (reduced viability); caspase hit class no change; viability robust z-score -3.19; caspase robust z-score 2.3; active.
SYN3 scored viability hit class no change; caspase hit class no change; viability robust z-score 0.07; caspase robust z-score 0.06; inactive.
Against NOXO1, the entry reads viability hit class no change; caspase hit class no change; viability robust z-score 0.75; caspase robust z-score 0.02; inactive.
KIF4A showed viability hit class no change; caspase hit class no change; viability robust z-score 0.6; caspase robust z-score 1.77; inactive.
Silencing of TUBG1 gave: viability hit class no change; caspase hit class no change; viability robust z-score -1.52; caspase robust z-score 4.04; inactive.
Against PKP1 the deposit lists viability hit class no change; caspase hit class no change; viability robust z-score 0.11; caspase robust z-score 0.14; inactive.
